Results on 63 compounds are retold here after the supplement of paper PMC8616043.

Structures can show the parent of a compound that is named as a salt. The list shows a part of the results. This data set is noisy: repeats of one test often differ as much as different tests do.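 PR50, a 50-repeat proline–arginine dipeptide protein from C9ORF72 (ALS/FTD), was expressed by transfection in U-2 OS human cells stably carrying a GFP sensor with import and classical export signals. Per-well nuclear-minus-cytoplasm GFP, normalized between in-plate DMSO (low) and PR-only (high), was scored versus other test wells; compounds well below zero were hits reversing PR.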

This assay has as its system U-2 OS NCT-C biosensor cells expressing PR50. The assay is described as follows: Z-score of normalised NCT-C biosensor translocation index in PR50-expressing cells; higher = more nuclear biosensor (more disrupted nuclear export). The following applies: 3 µM; 24 h.
`COc1ccccc1N1CCN(CCN(C(=O)C2CCCCC2)c2ccccn2)CC1`: the Z-score was inactive: -0.207.
With `Nc1ccn([C@@H]2O[C@H](CO)[C@@H](O)C2(F)F)c(=O)n1` [Gemcitabine hydrochloride], the Z-score is inactive: 3.47.
For `Nc1ccn([C@@H]2O[C@H](CO)[C@@H](O)C2(F)F)c(=O)n1` [Gemcitabine·HCl], the Z-score was inactive: 0.685.
For `CO[C@H]1C[C@@H]2CC[C@@H](C)[C@@](O)(O2)C(=O)C(=O)N2CCCC[C@H]2C(=O)O[C@H]([C@H](C)C[C@@H]2CC[C@@H](OCCO)[C@H](OC)C2)CC(=O)[C@H](C)/C=C(\C)[C@@H](O)[C@@H](OC)C(=O)[C@H](C)C[C@H](C)/C=C/C=C/C=C/1C` [Everolimus], the Z-score was inactive: 0.0184.
In the case of `C=CC1=C(C)c2cc3[nH]c(cc4nc(cc5[nH]c(cc1n2)c(C)c5CCC(=O)O)C(CCC(=O)O)=C4C)c(C)c3C=C` [Protoporphyrin IX], the Z-score is inactive: -0.103.
In the case of `CC1CNc2c(cccc2S(=O)(=O)N[C@@H](CCCNC(=N)N)C(=O)N2CC[C@@H](C)C[C@@H]2C(=O)O)C1` (stereo partly drawn) [Argatroban monohydrate] it was inactive: -0.421.
With `CC1CNc2c(cccc2S(=O)(=O)N[C@@H](CCCNC(=N)N)C(=O)N2CC[C@@H](C)C[C@@H]2C(=O)O)C1` (stereo partly drawn) [Argatroban], the Z-score is inactive: 0.385.
For `C=C1C[C@@]23CC[C@H]4[C@@](C)(CCC[C@@]4(C)C(=O)O)[C@@H]2CC[C@]1(O)C3` [Steviol], the Z-score was inactive: -1.03.
As for `CC12C=Cc3occc3C1CCC13CC(=O)C(CCC12)C3` (stereo not drawn) [16-Oxokahweol], the Z-score was inactive: -0.61.
Turning to `O=C1Nc2ccccc2/C1=C1/Nc2ccccc2C1=O` [Indirubin], the Z-score is inactive: -0.363.
Consider `N=C(N)NC(=O)Cc1c(Cl)cccc1Cl` [Guanfacine·HCl], for which the Z-score is inactive: -1.67.
Take `O=C(O)C(O)Cc1ccc(O)c(O)c1` (stereo not drawn) [Danshensu sodium salt]: the Z-score is inactive: -0.713.
For the compound `CCCCCOc1ccc(-c2cc(-c3ccc(C(=O)N[C@H]4C[C@@H](O)[C@@H](O)NC(=O)[C@@H]5[C@@H](O)[C@@H](C)CN5C(=O)[C@H]([C@H](O)CC(N)=O)NC(=O)[C@H]([C@H](O)[C@@H](O)c5ccc(O)c(OS(=O)(=O)O)c5)NC(=O)[C@@H]5C[C@@H](O)CN5C(=O)[C@H]([C@@H](C)O)NC4=O)cc3)no2)cc1` [Micafungin], the Z-score was inactive: -0.63.
As for `COc1cc2nc(N(C)CCCNC(=O)C3CCCO3)nc(N)c2cc1OC` (stereo not drawn) [Alfuzosin hydrochloride], the Z-score was inactive: 3.62.
In the case of `COc1cc2nc(N(C)CCCNC(=O)C3CCCO3)nc(N)c2cc1OC` (stereo not drawn) [Alfuzosin] it was inactive: -1.12; in that of `Clc1ccc(Cn2c(CN3CCCC3)nc3ccccc32)cc1` [Clemizole hydrochloride], inactive: 0.279.
Take `O=C(O)/C=C/c1ccc(O)c(O)c1` [Caffeic Acid]: the Z-score was inactive: 2.83.
Take `O=C(O)/C=C/c1ccc(O)c(O)c1` [Caffeic acid]: the Z-score is inactive: -0.616.
Turning to `N[C@@H](Cc1c[nH]c2ccc(O)cc12)C(=O)O` [5-Hydroxy-L- tryptophan], the Z-score is inactive: -0.0134.
As for `OCC1OC(n2cnc3c(NC4CCCCC4)ncnc32)C(O)C1O` (stereo not drawn) [N6-Cyclohexyl adenosine], the Z-score was inactive: 0.0224.
With `O=C(O)COCCN1CCN(C(c2ccccc2)c2ccc(Cl)cc2)CC1` (stereo not drawn) [Cetirizine 2HCl], the Z-score is inactive: -1.18.
In the case of `O=C(O)COCCN1CCN(C(c2ccccc2)c2ccc(Cl)cc2)CC1` (stereo not drawn) [Cetirizine dihydrochloride] it was inactive: 0.294.
Turning to `N[C@@H]1CONC1=O` [D-Cycloserine], the Z-score was inactive: -0.259.
The same measure for `N[C@@H]1CONC1=O` [Cycloserine]: inactive: -0.423.
Take `CC(=O)O[C@]1(C(C)=O)CC[C@H]2[C@@H]3C=C(Cl)C4=CC(=O)[C@@H]5C[C@@H]5[C@]4(C)[C@H]3CC[C@@]21C` [Cyproterone acetate]: the Z-score was inactive: -0.281.
In the case of `Clc1ccc(CO/N=C(\Cn2ccnc2)c2ccc(Cl)cc2Cl)c(Cl)c1` [Oxiconazole Nitrate] it was inactive: -0.252; in that of `Clc1ccc(CO/N=C(\Cn2ccnc2)c2ccc(Cl)cc2Cl)c(Cl)c1` [Oxiconazole nitrate], inactive: 0.0424.
In the case of `CCCc1c2oc(C(=O)O)cc(=O)c2cc2c(=O)cc(C(=O)O)n(CC)c12` [Nedocromil] it was inactive: -1.05; in that of `CC(C)N1CCN(S(=O)(=O)c2ccc(NC(=O)c3ccc(C(F)(F)F)cc3[N+](=O)[O-])cc2)CC1`, inactive: -0.8; in that of `O=C(O)c1ccc(-c2c[nH]c3ncc(-c4ccccc4)cc23)cc1C1CCCC1`, inactive: -0.211.
In the case of `CN1CCc2cc(Cl)c(O)cc2[C@@H](c2ccccc2)C1`, the Z-score was inactive: 0.37.
With `COc1cc2c3cc1Oc1cc(ccc1O)C[C@@H]1c4c(cc(OC)c(O)c4Oc4ccc(cc4)C[C@@H]3N(C)CC2)CC[N+]1(C)C` [(+)-Tubocurarine chloride], the Z-score was inactive: -0.458.
As to `CC1=C(C(=O)O)N2C(=O)[C@@H](NC(=O)[C@H](N)C3=CCC=CC3)[C@H]2SC1` [Cephradine], the Z-score is inactive: -0.276.
Take `CCc1c(C)[nH]c2c1C(=O)C(CN1CCOCC1)CC2` (stereo not drawn) [Molindone hydrochloride]: the Z-score was inactive: 0.804.
Consider `CC(C)=CC[C@@H](O)C1=CC(=O)c2c(O)ccc(O)c2C1=O` [Shikonin], for which the Z-score is inactive: -0.46.
In the case of `NC(=O)C1=CN(C2OC(COP(=O)(O)OP(=O)(O)OC[C@H]3O[C@@H](n4cnc5c(N)ncnc54)C(OP(=O)(O)O)[C@H]3O)C(O)C2O)C=CC1` (stereo partly drawn) [NADPH  tetrasodium] it was inactive: 0.102.
In the case of `CC1=C(/C=C/C(C)=C/C=C/C(C)=C/C(=O)O)C(C)(C)CCC1` [Retinoic acid] it was inactive: -0.354.
With `CC1=C(/C=C/C(C)=C/C=C/C(C)=C/C(=O)O)C(C)(C)CCC1` [All trans retinoic acid], the Z-score was inactive: -0.525.
As to `CC1=C(/C=C/C(C)=C/C=C/C(C)=C/C(=O)O)C(C)(C)CCC1` [Tretinoin], the Z-score was inactive: 0.395.
In the case of `COc1ccc2ccc(=O)oc2c1CC=C(C)C` [Osthole], the Z-score was inactive: 1.42.
The same measure for `O=c1cc(-c2ccccc2)oc2cc(O)ccc12` [7-Hydroxyflavone]: inactive: 0.528; for `CC(=O)Oc1ccccc1C(=O)O` [Aspirin (Acetylsalicylic Acid)]: inactive: 0.54.
Regarding `CC(=O)Oc1ccccc1C(=O)O` [Acetylsalicylic acid], the Z-score was inactive: -0.081.
For the compound `CNS(=O)(=O)CCc1ccc2[nH]cc(C3CCN(C)CC3)c2c1` [Naratriptan·HCl], the Z-score is inactive: -0.398.
As to `CNS(=O)(=O)CCc1ccc2[nH]cc(C3CCN(C)CC3)c2c1` [Naratriptan hydrochloride], the Z-score was inactive: 0.677.
Turning to `O=C(NCC1(c2nc(-c3ccccc3)cs2)CCOCC1)c1cccc(-c2noc(C(F)(F)F)n2)c1`, the Z-score was inactive: 0.324.
In the case of `CCCCCCCCCCCCCC[C@@H](O)[C@@H](O)[C@@H](N)CO` [Phytosphingosine] it was inactive: -0.542; in that of `O=C(O)C(=O)O.[NH-][C@@H]1CCCC[C@H]1[NH-].[Pt+2]` [Oxaliplatin], inactive: -0.158.
Take `Cc1ccc(NC(=O)c2ccc(CN3CCN(C)CC3)cc2)cc1Nc1nccc(-c2cccnc2)n1` [Imatinib mesylate]: the Z-score was inactive: -0.163.
For `Cc1ccc(NC(=O)c2ccc(CN3CCN(C)CC3)cc2)cc1Nc1nccc(-c2cccnc2)n1` [Imatinib Mesylate], the Z-score was inactive: -0.42.
The same measure for `Cc1nn(-c2ccccc2)c(C)c1C=NN1CCN(Cc2ccccc2)CC1`: inactive: -0.146; for `Oc1cc2c(c(Cl)c1O)CCNCC2c1ccccc1` (racemic) [(±)-6-Chloro-PB hydrobromide]: inactive: -0.708; for `Fc1ccc(CN(C2=NCCN2)c2c(Cl)cccc2Cl)cc1` [IMID-4F  hydrochloride]: inactive: 0.0674.
With `CCOC(=O)O[C@]1(C(=O)OCCl)CC[C@H]2[C@@H]3CCC4=CC(=O)C=C[C@]4(C)[C@H]3[C@@H](O)C[C@@]21C` [Loteprednol Etabonate], the Z-score was inactive: 0.663.
Turning to `c1cnc(N2CCN(Cc3ccc4c(c3)OCO4)CC2)nc1` [Piribedil maleate salt], the Z-score is inactive: -1.18.
In the case of `C[C@](N)(Cc1ccc(O)c(O)c1)C(=O)O` [Methyldopa Sesquihydrate (L-Α-Methyl-Dopa Sesquihyrate)], the Z-score is inactive: 0.0869.
In the case of `C[C@](N)(Cc1ccc(O)c(O)c1)C(=O)O` [L-alpha-Methyl DOPA] it was inactive: -0.0357; in that of `O=C(O)CNC(=O)C(CS)Cc1ccccc1` (racemic) [DL-Thiorphan], inactive: -0.317.
In the case of `C[C@H]1c2cccc(O)c2C(=O)C2=C(O)[C@]3(O)C(=O)C(C(N)=O)=C(O)[C@@H](N(C)C)[C@@H]3[C@@H](O)[C@@H]21` [Doxycycline hydrochloride] it was inactive: 0.969; in that of `C[C@H]1c2cccc(O)c2C(=O)C2=C(O)[C@]3(O)C(=O)C(C(N)=O)=C(O)[C@@H](N(C)C)[C@@H]3[C@@H](O)[C@@H]21` [Doxycycline Monohydrate], inactive: 0.674.
As for `CC(C)NCC(O)COc1ccc(CCOCC2CC2)cc1` (stereo not drawn) [Betaxolol·HCl], the Z-score is active: -2.21.
In the case of `CC(C)NCC(O)COc1ccc(CCOCC2CC2)cc1` (stereo not drawn) [Betaxolol hydrochloride], the Z-score is inactive: 2.98.
As to `CC(=O)[C@@]1(O)CC[C@H]2[C@@H]3C[C@H](C)C4=CC(=O)C=C[C@]4(C)[C@@]3(F)[C@@H](O)C[C@@]21C` [Fluorometholone], the Z-score was inactive: 0.677.
